Measured values as given in US20130108548A1 (VECT HORUS, published 2013).
No constants are given. Whether binding was seen depends on the method and setting. Some binding calls cover weakened binding; strength is not graded here. Sequences can lack the tags named with a protein.

Amino acid sequences for entries named in this document (tags omitted). Residues count along the entry.
UniProt P35952, residues 22-879: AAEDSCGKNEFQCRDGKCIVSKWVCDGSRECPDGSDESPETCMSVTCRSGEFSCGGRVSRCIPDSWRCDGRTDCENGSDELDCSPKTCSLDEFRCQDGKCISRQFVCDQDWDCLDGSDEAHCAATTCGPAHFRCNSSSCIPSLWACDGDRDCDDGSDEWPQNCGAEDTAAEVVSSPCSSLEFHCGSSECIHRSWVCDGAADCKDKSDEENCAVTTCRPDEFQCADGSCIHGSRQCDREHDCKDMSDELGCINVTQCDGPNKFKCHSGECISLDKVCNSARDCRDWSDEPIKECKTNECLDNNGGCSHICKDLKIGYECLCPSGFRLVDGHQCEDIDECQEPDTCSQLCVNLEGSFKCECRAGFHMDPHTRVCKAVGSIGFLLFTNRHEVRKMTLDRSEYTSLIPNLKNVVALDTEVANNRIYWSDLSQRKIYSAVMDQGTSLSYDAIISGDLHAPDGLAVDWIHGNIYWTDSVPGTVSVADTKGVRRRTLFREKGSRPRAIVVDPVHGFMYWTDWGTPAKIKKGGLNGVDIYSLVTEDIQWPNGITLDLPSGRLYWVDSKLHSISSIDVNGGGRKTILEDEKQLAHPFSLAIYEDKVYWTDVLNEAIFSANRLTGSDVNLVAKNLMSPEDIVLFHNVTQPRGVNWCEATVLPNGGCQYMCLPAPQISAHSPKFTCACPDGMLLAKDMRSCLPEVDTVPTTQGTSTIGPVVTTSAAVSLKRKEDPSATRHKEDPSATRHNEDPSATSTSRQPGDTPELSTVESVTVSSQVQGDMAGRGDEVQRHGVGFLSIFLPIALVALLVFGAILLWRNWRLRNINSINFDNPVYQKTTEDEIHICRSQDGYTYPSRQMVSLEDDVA

Biological target: rat LDLR on rat brain capillary endothelial cells (RBCEC) (rat) (UniProt P35952)
Test: binding/uptake on live rat BCEC of the in vitro BBB model, different concentrations, 30 min

binding: binds
Binder: CMPRLRGC (Fc fusion, not shown: a dimerising Fc or GST) [Fc-SEQ ID NO: 31 (fusion)]
